Experimental data reported in PubChem BioAssay AID1307 (SRMLSC, 2008).
Fewer than 10 of roughly 1,200 compounds were called active.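 The calls were made as follows: active = inhibition reaching a set limit at one or more tested concentrations; inactive = inhibition under that limit at every dose.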 The list shows a part of the results. Measured potencies and affinities stand elsewhere.

Assay: RAM pathway signaling blockade in S. cerevisiae – dose response (AID 1307);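 also: 0% = DMSO vehicle wells and 100% = 10 µM 1-NA-PP1 control; higher inhibition means more yeast growth since RAM block rescues cells from 5-FOA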
Details: S. cerevisiae RAM network URA3 reporter, 5-FOA growth OD615, hits give high values, yeast express analog-sensitive mutant Cbk1 kinase; at 100 µM unless noted

Max inhibition, inactive:
CCOC(=O)c1cc(C)sc1NC(=O)C(c1ccccc1)c1ccccc1 4.13% [setting not given]
C=CCNC(=S)N/N=C/c1ccc(N(CC)Cc2ccccc2)cc1 3.65%
COc1cc2c(cc1NC(=O)C(C)Sc1ccc(C)cc1)oc1ccccc12 (centres undefined) 5.16% [at 50 µM]
Cc1ccccc1OCCNC(=O)c1ccccc1Sc1ccccc1C#N 3.84% [at 0.196 µM]
CCCNC(=O)OC[C@H]1O[C@H](CCO/N=C/[C@@H](NS(=O)(=O)c2ccc(C)cc2)[C@H](C)/C=C/CC(=O)OC)C=C[C@@H]1Oc1ccc(OC)cc1 4.41% [at 25 µM]
CC(C)c1ccc(CNC(=O)CSCC(=O)Nc2ccc3ccccc3c2)cc1 3.89% [at 50 µM]
CSc1nc(Cl)c(Cc2ccc(OC(C)C)cc2)c(N2CCOCC2)n1 2.79% [at 0.196 µM]
Brc1ccc(-c2csc(N3CCc4ccccc4C3)n2)cc1 3.05% [at 0.782 µM]
O=C(CSc1ccc(Cl)cc1)N1CCN(c2c(Cl)cccc2[N+](=O)[O-])CC1 2.4% [at 50 µM]
CC(=O)Nc1ccc(-c2cc(-c3ccc(NC(C)=O)cc3)nc(-c3ccc(NC(C)=O)cc3)n2)cc1 13.5%
CCOC(=O)C(C)Sc1nc2c(c(-c3cccs3)c1C#N)CCC2 (centres undefined) 3.89% [at 50 µM]
C=CCn1c(C)cc(C(=O)COC(=O)/C=C/c2cccc(OC)c2)c1C 4.35%
C=CCn1c(-c2cccn(Cc3ccc(Cl)cc3)c2=O)n[nH]c1=S 12.1%
CCOc1cc(S(=O)(=O)Nc2ccc(CC)cc2)ccc1Cl 1.93% [at 0.782 µM]
O=C1CCC(/C=C/c2ccccc2)=NN1Cc1ccccc1Cl 2.92% [at 0.391 µM]
CCC(C)COC(=O)C(C#N)c1nc2ccccc2nc1N1CCCCC1 (centres undefined) 5.11% [at 50 µM]
Cc1ccc(OCc2nc(C#N)c(NCc3ccc4c(c3)OCO4)o2)cc1 1.66% [at 1.563 µM]
COc1ccc(-c2c/c(=N\c3nc(-c4ccccc4)c(C)s3)c3ccccc3o2)cc1O 10.1%
COc1ccc(CNc2oc(-c3cccc4ccccc34)nc2C#N)cc1 2.85% [at 3.125 µM]
O=C(Nc1ccc(Cl)c(Cl)c1)c1ccc(Cn2cc(Cl)cn2)cc1 1.04% [at 1.563 µM]
CNC(=S)N(CCc1ccc(OC)c(OC)c1)Cc1cc2c(C)cc(C)cc2[nH]c1=O 3.29% [at 6.25 µM]
CCC1(C)CC(CCNS(=O)(=O)c2ccc(C)cc2)(c2ccc(C)cc2)CCO1 (centres undefined) 3.04%
O=C(CSc1nc(SCC(=O)NCc2ccccc2)n(-c2ccccc2)n1)NCc1ccccc1 2.64% [at 0.196 µM]
Cc1ccc(NC(=O)COC(=O)CCC(=O)c2ccc(C(C)(C)C)cc2)c([N+](=O)[O-])c1 2.67% [at 0.196 µM]
COc1ccc(N(C)S(=O)(=O)c2cccc(C(=O)OCC(=O)Nc3sc4c(c3C#N)CCCCC4)c2)cc1 2.6%
CCOC(=O)CSc1nc2ccccc2c(=O)n1CC1CCCC1 2.89% [at 0.782 µM]
Cc1ccc(S(=O)(=O)N2CCN(C(=O)C3COc4ccccc4O3)CC2)cc1C (centres undefined) 2.29% [at 12.5 µM]
CCOP(=O)(OCC)c1nc(-c2cccc3ccccc23)oc1NCc1ccc(OC)cc1 6.12%
CCOC(=O)c1c(C)[nH]c(C)c1C(=O)COC(=O)/C=C/c1ccc(Cl)cc1 2.07% [at 0.391 µM]
Cc1ccc(C(=O)c2c(NC(=O)c3ccccc3)sc(C)c2C)cc1 4.08% [at 3.125 µM]
CCCCOn1c(C)c(C(=O)OCC)c2c3no[n+]([O-])c3ccc21 2.31%
COc1cccc(NC(=S)N(Cc2ccc(Cl)cc2)Cc2ccc(C(=O)O)cc2)c1 3.88%
CCOC(=O)c1cccc(NC(=O)CSc2nnc(COc3ccccc3)n2CC)c1 0.96% [at 0.782 µM]
CCc1ccc(C(=O)COC(=O)C(Cc2ccccc2)NC(=O)c2ccc(Cl)cc2)cc1 (centres undefined) 1.81% [at 50 µM]
CCC(C)[C@@H](CN(N=O)[C@@H](Cc1ccccc1)CN(C)N=O)N(CCc1ccccc1)N=O (some centres undefined) 6.08% [at 0.196 µM]
Cc1cccc(C)c1OCC(O)Cn1c2ccccc2c2ccccc21 (centres undefined) 6.83% [at 50 µM]
COc1cc(C(c2sc3nc(C)nn3c2O)N2CCN(c3ccccc3)CC2)cc(OC)c1OC (centres undefined) 3.1% [at 0.196 µM]
CCCCOC(=O)c1ccc(NC(=O)/C=C/c2cccs2)cc1 6.49%
COc1cc(CNC(=O)c2cccc(COc3ccc(Cl)cc3)c2)cc(OC)c1 3.27% [at 0.391 µM]
O=C1/C(=C/c2ccc3c(c2)OCO3)CCC/C1=C\c1ccc2c(c1)OCO2 2.28% [at 50 µM]
CCCCn1c(NS(=O)(=O)c2ccc(C)cc2)c(S(=O)(=O)c2ccccc2)c2nc3ccccc3nc21 25.5%
O=c1ccc(/C=C/c2ccccc2)nn1Cc1ccc(Cl)cc1Cl 2.4% [at 50 µM]
CCCc1cc(C(=O)OC)c(NC(=O)c2cc(C)on2)s1 4.53% [at 6.25 µM]
CCOC(=O)c1c(NC(=O)COC(=O)CCS(=O)(=O)c2ccc(C)cc2)sc(C)c1C 2.54% [at 1.563 µM]
COC(=O)CCSc1cc([N+](=O)[O-])cc2c1c(C1OCCS1)nn2-c1ccccc1 (centres undefined) 4.5% [at 1.563 µM]
CC(C)=CCc1c(O)c(CC=C(C)C)c2c(c1O)C(=O)CC(c1ccc(O)cc1)O2 (centres undefined) 7.82% [at 50 µM]
COc1ccc(C(=O)/C=C/Nc2ccc(S(=O)(=O)Nc3onc(C)c3C)cc2)cc1 13.4%
O=[N+]([O-])c1ccc(N/N=C/c2sc(N3CCOCC3)nc2-c2ccccc2)c(S(=O)(=O)Nc2ccc(Cl)cc2)c1 8.74%
CN(C)c1ccnc2sc3c(SCc4ccc(Cl)cc4)ncnc3c12 7.85%
N#C/C(=C\C1=C(N2CCOCC2)C(=C/c2cccc([N+](=O)[O-])c2)/CC1)C(=O)Nc1ccccc1F 6.56%
CON/C=C(\C=Nc1ccc(Cl)cc1Cl)c1ncc(C(F)(F)F)cc1Cl 3.96% [at 50 µM]
C=CCOC(=O)/C(=C/c1cccc2ccccc12)NC(=O)c1ccccc1 4.24%
CCCCCCNC(=O)CC(c1ccccc1)c1cc(Br)ccc1O (centres undefined) 2.95%
COc1ccc(O[C@H]2C=C[C@@H](c3ccccc3)O[C@@H]2CO/N=C(\C)CCC(=O)OC[C@H]2O[C@H](c3ccccc3)C=C[C@@H]2Oc2ccc(OC)cc2)cc1 6.56%
O=C(/C=C/c1ccc2c(c1)OCO2)NCCSCc1c(Cl)cccc1Cl 2.2% [at 25 µM]
COC(=O)c1sccc1NC(=O)c1csc2c1CCCC2 2.81%
O=C(NCc1ccc(F)cc1)c1ccc(S(=O)(=O)Nc2cccc(C(F)(F)F)c2)cc1 3.97% [at 0.391 µM]
COc1ccc(/C=C/C(=O)c2ccc(Cl)cc2)c(OC)c1 2.43% [at 50 µM]
O=C(NCc1ccccc1)c1ccc(S(=O)(=O)N2CCCc3ccccc32)cc1 2.24%
O=C(Nc1ccccc1-c1nnc(SCc2ccccc2Cl)o1)c1ccccc1 2.67% [at 50 µM]
COc1ccc(C(=O)NC(=S)Nc2ccc(N3CCCC3)cc2)cc1OC 5.31%
COc1ccc(-c2ccc(-c3noc(-c4ccccc4C)n3)c(OC)n2)cc1 4.43% [at 6.25 µM]
CCCC(=O)OCCNc1cc(SCc2ccco2)c2nonc2c1[N+](=O)[O-] 4% [at 50 µM]
COC(=O)Cc1ccc(N(Cc2ccccc2F)S(=O)(=O)c2ccc(Cl)cc2)cc1 2.03% [at 6.25 µM]
CCN(CC(O)CON=C1c2ccccc2-c2ccccc21)S(=O)(=O)c1ccc(Cl)cc1 (centres undefined) 4.62% [at 50 µM]
C=CCOC(=O)C1=C(C)NC(C)=C(C(=O)OCC=C)C1/C=C/c1ccccc1 4.5%
CN(C)S(=O)(=O)c1cccc(NC(=O)COC(=O)C2(c3ccccc3F)CCCC2)c1 2.82% [at 0.782 µM]
CCN(Cc1ccccc1)S(=O)(=O)c1ccc(S(=O)(=O)N(Cc2cccc(OC)c2)CC2CCCO2)cc1 (centres undefined) 3.17% [at 6.25 µM]
O=C(/C=C/c1cccc([N+](=O)[O-])c1)NCCSCc1ccccc1Cl 1.79% [at 6.25 µM]
COc1ccc(/C=C(\C#N)C(=O)NCCc2ccccc2)cc1OCc1ccccc1 4.42% [at 1.563 µM]
CCCC1S/C(=N/N=C/c2ccc(C)cc2)N(Cc2ccc(OC)cc2)C1=O (centres undefined) 3.89% [at 50 µM]
COc1ccc(C(=O)NNC(=O)C(Cc2ccc(O)cc2)NC(=O)c2ccccc2NC(=O)c2ccc(OC)cc2)cc1 (centres undefined) 3.19%
COc1ccc(N2CCN(c3oc(COc4ccc(Cl)cc4)nc3C#N)CC2)cc1 5.67%
CSc1ccccc1-c1nnc(-c2ccc(C)cc2)o1 1.92% [at 50 µM]

A run of entries from the list above:
Max inhibition, inactive:
COc1cccc(NC(=S)N(Cc2ccc(Cl)cc2)Cc2ccc(C(=O)O)cc2)c1 3.88%
CCOC(=O)c1cccc(NC(=O)CSc2nnc(COc3ccccc3)n2CC)c1 0.96% [at 0.782 µM]
